# Taken from: PubChem BioAssay AID686938 (Drosophila RNAi Screening Center, 2013)
# Test: 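Fly genes required for calcium entry once internal stores are emptied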 (primary screen)
# Cell system: Drosophila S2R+ cells
# Reagent: long dsRNA against Drosophila genes, about 0.25 µg dsRNA per well, roughly 10,000 cells
# Duration: 5 days of knock-down before the calcium assay
# Conditions: thapsigargin (SERCA pump blocker) to empty calcium stores; entry signal taken 4 min after adding it
# Measured: 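Duplicate raw fluo-4 intensities per well from a plate reader, at rest and four minutes after thapsigargin emptied calcium stores; entry-to-rest ratio filled for only some wells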
# Reading the numbers: calcium entry signal: higher = stronger calcium signal after store depletion; resting calcium signal: higher = higher resting calcium signal
# Rule for the call: 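Called when the plate z-score of the entry-to-rest ratio, mean of duplicates, falls below −3; wells with low overall dye signal (Fmax z below −2) or more than five off-targets excluded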
# Meaning of the calls: active = strongly reduced calcium entry; inactive = no strong reduction
# In all, the deposit lists about 23,000 reagents; shown is an unselected part of those that have a named target and a result. Of all reagents, 75 (0.33%) were called active. 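Raw plate signals without normalisation; calls rest on plate z-scores that were not deposited; ratio present for only 364 wells.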 A plus sign joins genes that one reagent is predicted to hit. No sequences are given here. Not stated in the record: the dose of the treatment.
Gene,dsRNA,"calcium entry signal, replicate 1 (fluorescence units)","calcium entry signal, replicate 2 (fluorescence units)","resting calcium signal, replicate 1 (fluorescence units)","resting calcium signal, replicate 2 (fluorescence units)",activity call
dgt5 (dim gamma-tubulin 5),DRSC07280,3.55e7,3.73e7,1.67e7,1.83e7,inactive
Best4 (Bestrophin 4),DRSC10792,3.27e7,4.16e7,1.90e7,1.64e7,inactive
CG9631,DRSC14137,3.52e7,3.68e7,1.59e7,1.77e7,inactive
CG2691,DRSC19866,2.51e7,2.94e7,1.38e7,1.66e7,inactive
Cpr65Eb (Cuticular protein 65Eb),DRSC11026,3.50e7,4.30e7,1.66e7,1.75e7,inactive
CG40006,DRSC03787,2.25e7,3.56e7,1.05e7,1.48e7,inactive
CG40006,DRSC03809,2.27e7,4.46e7,1.02e7,1.68e7,inactive
CG40006,DRSC03814,3.17e7,4.46e7,1.40e7,2.01e7,inactive
CG40006,DRSC03817,2.99e7,4.45e7,1.34e7,1.77e7,inactive
NLaz (Neural Lazarillo),DRSC21521,3.27e7,4.02e7,1.82e7,1.85e7,inactive
veg (retired record),DRSC07714,4.20e7,4.75e7,2.00e7,2.14e7,inactive
CG15373,DRSC19663,3.50e7,3.11e7,1.80e7,1.57e7,inactive
Ptx1,DRSC16804,4.18e7,5.91e7,2.18e7,2.45e7,inactive
phtm (phantom),DRSC20237,3.66e7,3.12e7,1.78e7,1.36e7,inactive
CG16978,DRSC02553,4.19e7,3.25e7,2.02e7,1.45e7,inactive
CG13678,DRSC10036,5.32e7,3.50e7,2.78e7,1.82e7,inactive
Fdh (Formaldehyde dehydrogenase),DRSC16670,4.39e7,4.91e7,1.90e7,2.06e7,inactive
pod1 (pod1 coronin),DRSC18362,3.98e7,4.47e7,1.97e7,2.02e7,inactive
CG18294,DRSC09891,2.89e7,5.31e7,1.42e7,2.19e7,inactive
CG31041,DRSC13951,3.84e7,3.92e7,1.73e7,2.11e7,inactive
CG31013,DRSC16542,3.92e7,4.71e7,1.99e7,1.96e7,inactive
Octalpha2R (alpha2-adrenergic-like octopamine receptor),DRSC13319,4.30e7,1.97e7,1.92e7,9.66e6,inactive
Octalpha2R (alpha2-adrenergic-like octopamine receptor),DRSC15314,2.84e7,3.81e7,3.45e7,1.59e7,inactive
CG6179,DRSC19973,5.11e7,3.52e7,2.29e7,1.50e7,inactive
CG15673,DRSC04263,5.40e7,5.20e7,2.70e7,2.21e7,inactive
RpL4 (Ribosomal protein L4),DRSC16833,1.72e7,1.45e7,1.21e7,9.62e6,inactive
lok (loki),DRSC03567,4.85e7,,2.45e7,,inactive
ovm + CG31975,DRSC22146,2.52e7,3.75e7,1.24e7,2.04e7,inactive
CG6118,DRSC15968,1.78e7,2.92e7,9.50e6,4.63e7,inactive
CG6118,DRSC23197,4.84e7,2.88e7,2.27e7,1.33e7,inactive
CG15725,DRSC19691,3.85e7,5.38e7,1.86e7,2.36e7,inactive
CycD (Cyclin D),DRSC20233,3.67e7,3.37e7,2.13e7,1.81e7,inactive
CG16813,DRSC02520,4.98e7,3.43e7,2.19e7,1.47e7,inactive
CG17078,DRSC00484,4.64e7,4.82e7,2.12e7,2.07e7,inactive
GstD1 (Glutathione S transferase D1),DRSC16683,3.80e7,3.32e7,1.90e7,1.76e7,inactive
CG12521,DRSC09893,3.12e7,3.91e7,1.57e7,1.52e7,inactive
CG32236,DRSC08117,3.47e7,3.89e7,1.52e7,1.62e7,inactive
CG17570,DRSC01770,2.62e7,4.35e7,1.28e7,1.68e7,inactive
CG17570,DRSC03754,4.84e7,5.11e7,2.53e7,2.11e7,inactive
Oamb (Octopamine receptor in mushroom bodies),DRSC13433,7.44e7,3.13e7,3.11e7,1.48e7,inactive
Oamb (Octopamine receptor in mushroom bodies),DRSC15120,4.08e7,4.31e7,7.04e7,2.18e7,inactive
Oamb (Octopamine receptor in mushroom bodies),DRSC16763,4.47e7,5.38e7,6.05e7,2.47e7,inactive
Gpdh2 (Glycerol-3-phosphate dehydrogenase 2),DRSC04346,3.87e7,3.98e7,2.11e7,1.82e7,inactive
Brf (Brf RNA polymerase III subunit),DRSC13228,3.14e7,2.24e7,1.50e7,1.03e7,inactive
Brf (Brf RNA polymerase III subunit),DRSC14166,3.16e7,4.33e7,1.47e7,7.79e7,inactive
Brf (Brf RNA polymerase III subunit),DRSC14167,3.00e7,4.58e7,1.40e7,8.06e7,inactive
TM9SF4 (Transmembrane 9 superfamily protein member 4),DRSC01888,3.82e7,,1.83e7,,inactive
CG15082,DRSC06513,4.14e7,4.42e7,1.73e7,2.12e7,inactive
CG11241,DRSC11641,2.96e7,6.02e7,1.48e7,2.86e7,inactive
CG11241,DRSC22165,3.13e7,6.18e7,1.57e7,2.87e7,inactive
CG18787 + CG18789,DRSC02698,2.68e7,2.07e7,1.43e7,1.03e7,inactive
Hira,DRSC18672,3.12e7,3.95e7,1.39e7,1.74e7,inactive
tok (tolkin),DRSC17087,4.18e7,3.92e7,1.83e7,1.58e7,inactive
DptB (Diptericin B),DRSC06001,5.19e7,4.16e7,2.21e7,2.12e7,inactive
MED4 (Mediator complex subunit 4),DRSC11014,5.04e7,3.11e7,3.27e7,1.35e7,inactive
Sirt7 (Sirtuin 7),DRSC14294,2.21e7,2.31e7,1.01e7,1.09e7,inactive
Larp4B (La-related protein 4B),DRSC08192,2.48e7,2.79e7,1.39e7,1.47e7,inactive
Larp4B (La-related protein 4B),DRSC23201,3.30e7,3.07e7,1.57e7,1.40e7,inactive
